This passage reports IC50 and Ki results from PMC6553708 (PLoS ONE, 2019).

Amino acid sequences for entries named in this document (tags omitted).
UniProt P23975, whole entry: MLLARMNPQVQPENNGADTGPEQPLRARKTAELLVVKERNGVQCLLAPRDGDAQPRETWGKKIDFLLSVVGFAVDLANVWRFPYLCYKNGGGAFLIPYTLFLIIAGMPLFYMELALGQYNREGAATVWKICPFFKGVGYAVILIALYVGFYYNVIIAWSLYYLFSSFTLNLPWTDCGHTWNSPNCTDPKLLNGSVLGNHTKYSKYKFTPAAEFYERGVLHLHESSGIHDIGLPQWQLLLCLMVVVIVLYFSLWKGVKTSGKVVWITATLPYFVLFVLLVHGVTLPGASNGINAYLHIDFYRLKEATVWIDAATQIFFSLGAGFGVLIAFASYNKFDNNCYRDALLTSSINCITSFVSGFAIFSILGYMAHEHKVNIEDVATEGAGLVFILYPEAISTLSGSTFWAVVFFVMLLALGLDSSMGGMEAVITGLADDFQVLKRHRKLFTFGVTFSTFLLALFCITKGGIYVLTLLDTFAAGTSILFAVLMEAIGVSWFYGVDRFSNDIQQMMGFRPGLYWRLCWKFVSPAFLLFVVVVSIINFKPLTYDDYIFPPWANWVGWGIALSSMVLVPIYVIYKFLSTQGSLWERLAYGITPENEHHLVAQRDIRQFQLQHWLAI

Each structure is given as a SMILES string.

Experiment [1] deals with T1, Norepinephrine Transporter (NET) (Homo sapiens, UniProt P23975).
T1 construct: HA (N); host or cells: HEK293 (ATCC CRL-1573), electroporated, G418-selected population
The experiment is described as follows: cell-based.

Experiment [2] addresses MOR. To be noted: read-out: KI at the MOR (reported); ref [3]; cited from earlier work.

On to `COc1cccc(C2(O)CCCCC2CN(C)C)c1` (centres unmarked) [Tramadol], for which, in experiment [1], the IC50 is over 2 µM. The Ki in experiment [2] is over 10 µM.

What is called IC50 is the midpoint of a concentration-inhibition curve. Higher therefore signals weaker potency. The Ki is a dissociation constant, usually derived from enzyme kinetics or from competition with a known ligand.
